Only a part is listed here, and it is no random draw. For some assays here: At the low end of the ranking the order means little. The list shows a part of the results. For some assays here: The exact form of the protein is not confirmed.
Key:
Assay in all cases: DAPPL (digital affinity profiling via proximity ligation, sequencing)
Settings in all cases: 10 mM Tris-HCl pH 7.5, 50 mM NaCl, 1 mM DTT, 4% glycerol, room temperature, 30 min; GST-TFs on glutathione beads, 16-mer random dsDNA library, 0.1% …; high values mean tight binding; double strand, one strand shown; scale: fold enrichment (6-mer frequency, TF over GST control)
[1] = target: ELF1 (UniProt P32519)
[2] = target: T1, ETV4 (UniProt P43268)
T1 sequence: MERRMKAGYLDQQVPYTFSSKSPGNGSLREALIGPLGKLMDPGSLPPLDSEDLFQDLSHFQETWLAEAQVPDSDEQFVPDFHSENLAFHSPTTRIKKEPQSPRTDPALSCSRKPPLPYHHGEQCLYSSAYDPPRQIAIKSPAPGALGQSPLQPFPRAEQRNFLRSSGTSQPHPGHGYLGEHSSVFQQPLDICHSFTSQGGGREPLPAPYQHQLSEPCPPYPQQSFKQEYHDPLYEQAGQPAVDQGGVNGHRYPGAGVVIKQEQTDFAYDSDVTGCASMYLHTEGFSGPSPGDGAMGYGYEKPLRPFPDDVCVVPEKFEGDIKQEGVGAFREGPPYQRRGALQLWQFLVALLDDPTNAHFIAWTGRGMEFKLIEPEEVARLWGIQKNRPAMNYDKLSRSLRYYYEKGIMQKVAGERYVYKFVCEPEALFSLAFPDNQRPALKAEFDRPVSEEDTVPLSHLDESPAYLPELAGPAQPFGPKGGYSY

The chains behind the UniProt entries cited, without tags or fusion partners. Where a name states a change or a piece, a line headed by the entry shows the natural chain unless it says otherwise.
UniProt P32519: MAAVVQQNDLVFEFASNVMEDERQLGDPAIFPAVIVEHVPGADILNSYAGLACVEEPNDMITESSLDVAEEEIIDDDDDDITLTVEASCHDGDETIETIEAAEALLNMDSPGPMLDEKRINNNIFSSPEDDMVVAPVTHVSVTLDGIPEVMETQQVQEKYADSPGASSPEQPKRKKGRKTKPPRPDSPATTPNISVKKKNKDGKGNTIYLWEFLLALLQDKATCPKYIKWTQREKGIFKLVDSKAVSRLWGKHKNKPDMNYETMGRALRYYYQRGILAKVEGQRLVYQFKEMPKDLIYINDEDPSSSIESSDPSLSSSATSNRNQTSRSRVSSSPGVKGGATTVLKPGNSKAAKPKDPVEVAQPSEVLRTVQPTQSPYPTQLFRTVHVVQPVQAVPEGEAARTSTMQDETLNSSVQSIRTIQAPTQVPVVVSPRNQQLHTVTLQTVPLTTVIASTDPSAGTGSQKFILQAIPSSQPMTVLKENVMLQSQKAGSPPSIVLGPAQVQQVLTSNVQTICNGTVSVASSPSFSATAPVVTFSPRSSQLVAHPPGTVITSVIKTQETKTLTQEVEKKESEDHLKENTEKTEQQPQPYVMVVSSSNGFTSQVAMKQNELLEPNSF

[3] = target: T2, ERF (UniProt P50548)
T2 sequence: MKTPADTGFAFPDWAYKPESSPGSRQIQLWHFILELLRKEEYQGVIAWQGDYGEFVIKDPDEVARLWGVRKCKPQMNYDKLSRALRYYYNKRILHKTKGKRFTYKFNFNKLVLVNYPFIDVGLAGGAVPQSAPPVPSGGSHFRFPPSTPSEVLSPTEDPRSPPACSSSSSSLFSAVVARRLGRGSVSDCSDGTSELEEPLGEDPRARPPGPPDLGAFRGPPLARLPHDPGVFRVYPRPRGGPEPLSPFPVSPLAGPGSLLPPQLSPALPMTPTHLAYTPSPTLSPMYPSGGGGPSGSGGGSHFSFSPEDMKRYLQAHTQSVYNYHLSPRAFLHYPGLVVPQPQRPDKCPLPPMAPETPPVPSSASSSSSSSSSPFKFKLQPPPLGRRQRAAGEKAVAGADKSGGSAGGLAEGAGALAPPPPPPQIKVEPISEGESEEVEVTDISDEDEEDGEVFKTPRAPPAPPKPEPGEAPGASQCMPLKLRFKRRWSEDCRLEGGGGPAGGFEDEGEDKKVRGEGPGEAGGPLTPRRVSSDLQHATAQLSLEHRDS

| Sequence | binding signal [1] | binding signal [2] | binding signal [3] |
| --- | --- | --- | --- |
| CGTCAT | 0.967 | 0.911 | 0.97 |
| TGAACA | – | 1.25 | 1.27 |
| ACACCG | 0.992 | 1.09 | 1 |
| TGCCTC | 1.31 | 1.4 | – |
| CTAACA | 1.25 | 1.19 | – |
| CCTCGC | 1.37 | 1.45 | – |
| TGTATG | 1.23 | 1.17 | 1.31 |
| TCAATG | 1.04 | 1.09 | – |
| TCTCTT | 1.47 | 1.45 | 1.37 |
| GCGCCT | 1.1 | 1.17 | – |
| CTTCCG | 7.37 | 8.26 | 6.13 |
| GATTGC | 0.993 | 0.977 | 1.02 |
| TGGATA | 0.984 | 1.06 | 1 |
| CACTGC | 1.44 | 1.31 | 1.38 |
| CTCGAA | 1.18 | 1.15 | 1.22 |
| CGCGCT | 1.18 | 1.3 | – |
| GTAAAT | 1.16 | 1.14 | – |
| GCTAAG | 0.988 | 0.977 | 0.874 |
| TCAAAT | 1.15 | 1.09 | – |
| TTGTGT | 1.18 | 1.16 | 1.4 |
| CCTGGC | 1.07 | 1.04 | – |
| TGACCA | 1.29 | 1.28 | – |

| Sequence | binding signal [1] | binding signal [2] | binding signal [3] |
| --- | --- | --- | --- |
| TGCTTA | 1.13 | 1.11 | 1.1 |
| TGTCTA | 1.15 | 1.09 | – |
| TTGACT | 1.15 | 1.2 | – |
| CCTTCA | 1.51 | 1.5 | – |
| TGATTA | 1.09 | 1.11 | – |
| GTAATT | 1.22 | 1.16 | – |
| TGTGAT | 1.01 | 1.01 | 0.958 |
| CCTACC | 1.28 | 1.25 | – |
| AGTCCT | 0.989 | 1.04 | 0.887 |
| TCAAAA | 1.19 | 1.09 | – |
| CTTAAC | 1.35 | 1.27 | – |
| CGGGCT | 1.04 | 1.12 | – |
| CAACTA | 1.38 | 1.33 | – |
| CTCACC | 1.2 | 1.3 | – |
| TGTTCG | 0.986 | 1.1 | – |
| GTACAA | 1.11 | 1.06 | – |
| CACCGG | 1.09 | 1.27 | 1.08 |
| CAGCCC | 1.09 | 1.14 | – |
| GAAACG | 1.18 | 1.22 | – |
| TATGCC | 1.2 | 1.2 | – |
| TTATAA | 1.14 | 1.18 | – |
| CGCAAA | 1 | 1 | – |

| Sequence | binding signal [1] | binding signal [2] | binding signal [3] |
| --- | --- | --- | --- |
| TGTAAG | 1.11 | 1.07 | – |
| TCCGCA | 2.01 | 2.03 | – |
| CCATCC | 1.27 | 1.25 | – |
| TAAGTA | 1.24 | 1.2 | – |
| ACGATA | 1.19 | 1.15 | – |
| CACTCC | 1.34 | 1.28 | – |
| ATTGGC | 1.13 | 1.11 | – |
| GATATT | 1.13 | 1.09 | – |
| AACGCC | 1.09 | 1.16 | – |
| ACTTCT | 1.52 | 1.49 | – |
| AAGGTT | 1.05 | 1.01 | – |
| CTCATA | 1.38 | 1.45 | – |
| ACGCTA | 1.15 | 1.15 | – |
| TTCCGG | 5.41 | 6.35 | – |
| AAACAA | 1.28 | 1.21 | – |
| ACAACC | 1.16 | 1.24 | – |
| CCACCT | 1.15 | 1.17 | – |
| TTCTTG | 1.46 | 1.48 | – |
| TAAATT | 1.27 | 1.26 | – |
| GCTCGA | 1.21 | 1.23 | – |
| CAAATG | 1.22 | 1.14 | – |
| CAACCC | 1.24 | 1.17 | – |

Whole records as entered above. Order of values: binding signal [1]	binding signal [2]	binding signal [3]
TCTCTT in the list: 1.47	1.45	1.37
ACAACC in the list: 1.16	1.24	–

Later entries.

| Sequence | binding signal [1] | binding signal [2] | binding signal [3] |
| --- | --- | --- | --- |
| GTGCAT | 1.01 | 1.1 | – |
| TTCTGT | 1.27 | 1.32 | – |
| TTCTGA | 1.27 | 1.33 | – |
| ACTGCC | 1.42 | 1.32 | – |
| AGGCTT | 0.976 | 1.04 | – |
| TTCGGC | 1 | 0.997 | – |
| ACAGCT | 1.16 | 1.18 | – |
| GCCACT | 1.23 | 1.24 | – |
| GTATAA | 1.06 | 1.06 | – |
| TGGTGG | 1.03 | 1.07 | – |
| AAACCT | 1.19 | 1.13 | – |
| TGATAC | 1.14 | 1.07 | – |
| TTTCGC | 1.13 | 1.15 | – |
| GTTACT | 1.22 | 1.28 | – |
| ATATTC | 1.28 | 1.19 | – |
| CTGCTT | 1.65 | 1.67 | – |
| ATGTTA | 1.22 | 1.27 | – |
| TTACGT | 1.07 | 1.16 | – |
| GTACCC | 1.12 | 1.11 | – |

From PMC7862700
